Consider nine molecules from publication PMC6457555.

The chains behind the UniProt entries cited, without tags or fusion partners. Where a name states a change or a piece, a line headed by the entry shows the natural chain unless it says otherwise.
UniProt A0QSH7: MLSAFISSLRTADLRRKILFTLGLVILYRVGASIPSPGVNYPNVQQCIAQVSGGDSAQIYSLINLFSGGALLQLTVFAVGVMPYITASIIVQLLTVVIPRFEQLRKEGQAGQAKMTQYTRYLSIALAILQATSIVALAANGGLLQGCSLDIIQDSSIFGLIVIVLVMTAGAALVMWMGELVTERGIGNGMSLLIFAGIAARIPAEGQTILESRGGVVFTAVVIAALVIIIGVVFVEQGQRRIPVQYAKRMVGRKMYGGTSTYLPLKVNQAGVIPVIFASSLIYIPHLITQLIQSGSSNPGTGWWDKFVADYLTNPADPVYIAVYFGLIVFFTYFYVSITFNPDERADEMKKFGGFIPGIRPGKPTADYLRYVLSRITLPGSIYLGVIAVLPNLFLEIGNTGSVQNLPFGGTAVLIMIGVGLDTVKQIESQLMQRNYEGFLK
UniProt A0QZ49: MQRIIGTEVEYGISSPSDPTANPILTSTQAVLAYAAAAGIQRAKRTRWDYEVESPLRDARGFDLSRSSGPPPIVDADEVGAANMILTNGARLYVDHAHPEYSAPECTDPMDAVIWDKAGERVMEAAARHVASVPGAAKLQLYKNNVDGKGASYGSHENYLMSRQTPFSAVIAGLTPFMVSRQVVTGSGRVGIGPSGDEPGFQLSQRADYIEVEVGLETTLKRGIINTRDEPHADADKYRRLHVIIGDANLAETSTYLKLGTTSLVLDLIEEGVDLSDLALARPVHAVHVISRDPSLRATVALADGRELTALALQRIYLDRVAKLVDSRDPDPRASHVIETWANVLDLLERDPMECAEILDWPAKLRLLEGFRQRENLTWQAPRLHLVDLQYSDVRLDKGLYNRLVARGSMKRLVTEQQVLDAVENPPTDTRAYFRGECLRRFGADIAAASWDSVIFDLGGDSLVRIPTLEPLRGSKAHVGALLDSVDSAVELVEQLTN
UniProt A0R199: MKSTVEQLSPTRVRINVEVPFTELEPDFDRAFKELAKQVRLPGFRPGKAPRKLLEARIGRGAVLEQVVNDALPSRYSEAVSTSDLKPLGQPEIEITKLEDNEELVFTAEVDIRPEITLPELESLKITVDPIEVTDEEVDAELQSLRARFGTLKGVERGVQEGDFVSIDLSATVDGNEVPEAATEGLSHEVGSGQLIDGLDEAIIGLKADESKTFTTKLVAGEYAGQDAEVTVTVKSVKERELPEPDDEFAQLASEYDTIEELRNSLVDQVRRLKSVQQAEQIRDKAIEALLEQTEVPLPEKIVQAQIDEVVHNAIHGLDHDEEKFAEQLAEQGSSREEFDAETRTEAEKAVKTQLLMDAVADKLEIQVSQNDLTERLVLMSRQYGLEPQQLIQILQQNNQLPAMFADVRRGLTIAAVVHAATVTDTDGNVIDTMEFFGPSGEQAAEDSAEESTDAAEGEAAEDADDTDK

Assay [1] concerns the target T1, PepNMsm (aminopeptidase PepN of Mycobacterium smegmatis mc2155, MSMEG_4690) (Mycobacterium smegmatis mc2155 (endogenous in Msm lysate)) (UniProt A0R1B3).
T1 sequence: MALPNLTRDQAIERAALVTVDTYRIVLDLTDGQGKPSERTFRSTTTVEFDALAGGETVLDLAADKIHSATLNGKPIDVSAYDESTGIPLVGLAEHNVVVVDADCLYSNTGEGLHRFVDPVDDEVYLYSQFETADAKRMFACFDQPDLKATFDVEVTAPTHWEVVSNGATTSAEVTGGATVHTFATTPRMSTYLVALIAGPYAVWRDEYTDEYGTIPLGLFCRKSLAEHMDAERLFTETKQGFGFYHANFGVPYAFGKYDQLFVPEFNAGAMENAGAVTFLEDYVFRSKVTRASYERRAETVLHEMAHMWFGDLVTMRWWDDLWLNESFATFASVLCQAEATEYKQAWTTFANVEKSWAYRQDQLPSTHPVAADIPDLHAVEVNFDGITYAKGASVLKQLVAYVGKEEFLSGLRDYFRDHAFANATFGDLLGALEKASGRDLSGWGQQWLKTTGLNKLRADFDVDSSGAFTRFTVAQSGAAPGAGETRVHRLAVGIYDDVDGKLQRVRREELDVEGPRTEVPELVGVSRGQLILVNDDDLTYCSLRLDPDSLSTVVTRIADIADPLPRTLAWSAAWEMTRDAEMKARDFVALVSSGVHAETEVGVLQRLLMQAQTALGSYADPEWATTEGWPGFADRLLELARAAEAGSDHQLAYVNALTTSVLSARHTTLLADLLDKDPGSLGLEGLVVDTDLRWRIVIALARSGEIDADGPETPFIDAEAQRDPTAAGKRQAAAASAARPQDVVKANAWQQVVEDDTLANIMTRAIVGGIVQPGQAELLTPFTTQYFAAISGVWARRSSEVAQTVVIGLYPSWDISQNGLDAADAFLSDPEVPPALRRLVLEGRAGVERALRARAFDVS
Put plainly: affinity purification with mass spectrom.

The target in assay [2] is T1, PepNMsm (aminopeptidase PepN of Mycobacterium smegmatis mc2155, MSMEG_4690) (Mycobacterium smegmatis mc2155 (endogenous in Msm lysate)). Put plainly: affinity purification with mass spectrometry; 1 mg wild-type Msm lysate incubated with 100 ug purified anti-PepN antibody for 16 h at 4°C, Protein G magnetic beads 2 h at 4°C, washed in 1X TBST, eluted in 7.5 M urea, Nano-LC Q-Exactive Plus MS; proteins found with beads alone or pre-immune sera subtracted.

Assay [3] has the same target. Kind of assay: affinity purification with mass spectrom. This is another data set of the same source.

Results are given in words; binding and its absence hold for the method and conditions named. In cells and extracts the contact can be indirect. These calls come from enrichment with a bait or labelling near it, and not all partners need be listed. Tags and fused reporters may be left off the sequences shown.

Take SecY (from UniProt A0QSH7): in assay [1], the binding result is reported as “binds”.
For “Pup deamidase/depupylase (from UniProt A0QZ49 1-498) (enzyme)”, in assay [2], the binding entry is given as “binds”.
As for “Trigger factor (from UniProt A0R199 1-469)”, in assay [1], the binding result is listed as “binds”.
Same read-out and setting: the same measure for “Tat pathway signal sequence domain protein”: “binds”.
Consider proteasomal core subunit beta (enzyme), for which the binding result in assay [2] was “binds”.

B1: signal peptidase 1 (enzyme, UniProt A0QV43 1-289)
chain: MTGSTDSTDASSEDALDHDSAGDSAANPADEPQSRPDPEQDEKPKRKHGALREGAILVTIAVVLYYVMLTFIARPYLIPSESMEPTLHGCNGCVGDRIMVDKLTYRFTEPRPGDVVVFKGPPSWNIGYKSIRSDNPVIRGVQNALSFIGFVPPDENDLVKRVIAVGGQTVECRAATGLTVDGKKLDEPYLDPTTMMADPAIYPCLGNEFGPVTVPEDRIWVMGDNRTHSADSRVHCTNLPADAQKGLLCTGDPTAGTIPVENVIGKARFIAWPPSRWGGISDVNPQTSS
B1: the binding entry in assay [3] was “binds”.

B2: SecA2 (protein, UniProt A0QYG9 1-784)
chain: MPKTSSAKPGRLSSKFWKLLGASTERNQARSLSEVKGAADFEKKAADLDDEQLTKAAKLLKLEDLAGASDITQFLAIAREAAERTTGLRPFDVQLLAALRMLAGDVVEMATGEGKTLAGAIAAAGYALGGRRVHVITINDYLARRDAEWMGPLLKALGLTVGWITADSTADERREAYQCDVTYASVNEIGFDVLRDQLVTDVADLVSPNPDVALIDEADSVLVDEALVPLVLAGTSHREQPRVEIIRMVGELEAGKHYDTDAESRNVHLTEAGARVMEAKLGGIDLYSEEHVGTTLTEINVALHAHVLLQRDVHYIVRDDAVHLINASRGRIASLQRWPDGLQAAVEAKEGIETTETGEVLDTITVQALINRYPRVCGMTGTALAAGEQLRQFYKLGVSPIPPNTPNIRKDEPDRVYITAAAKIDAIVEHIAEVHKTGQPVLVGTHDVAESEELHEKLLKAGVPAVVLNAKNDAEEAAVIAEAGKLGAVTVSTQMAGRGTDIRLGGSDVGDDDAEKKKVAELGGLHVVGTGRHHTERLDNQLRGRAGRQGDPGSSVFFSSWEDDVVAAHLERSKLPMETDPDAGDGRIIAPRAASLLDHAQRVAEGRLLDVHANTWRYNQLIAQQRAIIVERRETLLRTDTAREELKERSPERYAKLAEELGEDAEERLEKICRLIMLYHLDRGWCEHLAFLADIRESIHLRALGRQNPLDEFHRMAVDAFASLAADAIEAAQQTFETAESVADEPGVDLSKLARPTSTWTYMVHDNPLADDTMSALSLPGVFR
For B2, in assay [3], the binding entry is listed as “binds”.

B3: Ribonuclease E (enzyme, UniProt A0R152 1-1037)
chain: MAEDAHTEDLSTQTPQQEGLPERLRVHSLARVLGTTSRRVLDALAEFDGRQRSAHSTVDKADAERVRAALTESPAAETPPEEAPAAETPVADLVVVQAEQVEVVTVSEAGPAEPAEPAEPEAPAAEAEAEAETEVADEAETPEPTFRGAVLVGDEPESRLILEHANIPPARETQTERPDYLPLFVAPQPVSFEPAVVDDEDEDDDTETGAESDFDSGADSDSDDDQADRPRRRRRGRRGRGRGRGEQNDDATSDADTDSTEDQTDGDEQESGEDSDDSGDEDSTTTEGGTRRRRRRRRRKSGSGDSDDAVSPDDPPNTVVHERAPRTERSDKSDDSEIQGISGSTRLEAKRQRRRDGRDAGRRRPPILSEAEFLARREAVERTMIVRDKVRTEPPHEGARYTQIAVLEDGVVVEHFVTSAASASLVGNIYLGIVQNVLPSMEAAFVDIGRGRNGVLYAGEVNWEAAGLGGQNRKIEQALKPGDYVVVQVSKDPVGHKGARLTTQVSLAGRYLVYVPGASSTGISRKLPDTERQRLKEILREVVPSDAGVIIRTASEGVKEEDIRSDVERLQKRWSEIEAKAAEVTEKKAGAAVALYEEPDVLVKVIRDLFNEDFSSLIVSGDEAWNTINSYVEAVAPDLMPRLTKYEPAGPDAPDVFAVHRIDEQLAKAMDRKVWLPSGGTLVIDRTEAMTVVDVNTGKFTGSGGNLEQTVTRNNLEAAEEIVRQLRLRDIGGIVVIDFIDMVLESNRDLVLRRLTEALARDRTRHQVSEVTSLGLVQLTRKRLGTGLVEAFSTACTHCGGRGIVLHGDPIDSASSNGGRKSDSSGGGGSGGGRRGKRGKKGAARTEEVHVAKVPDHTPGEHPMFKAMAAANGKHEGDEDHEDHEDHETAEDTTAAEVRDDTRDEHDADERAHVVTAAVGAAGDEDLDDSDEDSDLDSDEESDDESDEDEIELDDDEDELDEDIEVIGDSDDSDDSDDSDEDDDSDDSDDDSDEDEDSDSDEDEEPVREVYEPPVTAPRARVRRRAAARPAGPPSHD
In the case of B3, the binding entry in assay [3] was “binds”.

B4: DNA polymerase III γ-subunit (enzyme, UniProt A0R5R6 1-665)
chain: MALYRKYRPATFSEVVGQEHVTEPLCTALTAGRINHAYLFSGPRGCGKTSSARILARSLNCDQGPTPTPCGVCDSCVALAPNGPGNVDVVELDAASHGGVDDTRELRDRAFYAPAQSRYRIFIVDEAHMVTTAGFNALLKIVEEPPDHLIFVFATTEPEKVLPTIRSRTHHYPFRLLAPRTMRPLLERICAEENVEVDDAVYPLVIRAGGGSPRDTLSVLDQLLAGSEQGANGNHITYQRALSLLGATDLALIDDAVEALAANDAAALFGAVEAVVDAGHDPRRFATDLLERFRDLIVLQAVPDAVTRGVVDAPTDVLERMREQAERLGAGTLTRYAEVVHAGLGEMRGATAPRLLLEVMCARLLLPSAADTESALLQRIERIETRLDMSIPAGEASSGVAPAEPAKQFVRRSQAAAASPPAAEPAPATPPTPAAPPTPAAPPAPAVAAPPAPAPAPQAPRPEPPVARPAPEPPPRPAPEPVAPPPPAAPVPAAAPAAPAPAAETGSVPGQPNAAAVRSMWSTVREKVRQRSRTTEVMLSGAIVRAVEGDTLVLSHESAPLAKRLTESRNSEVIREALKDALGVNWKVRCVTGAPEAAVAAPPAATGGAAPQAPAPDPVEIARAEEDDMLAEAAAEPSESMPRRDPEEVALELLQNELGARRIDG
Turning to B4, the binding result in assay [3] is recorded as “binds”.
